Drawing on article PMC10570026, this text covers binding for three molecules.

The target in assay [1] is T1, Xenopus laevis DONSON (Xenopus laevis (endogenous in egg extract)) (UniProt Q5U4U4).
T1 sequence: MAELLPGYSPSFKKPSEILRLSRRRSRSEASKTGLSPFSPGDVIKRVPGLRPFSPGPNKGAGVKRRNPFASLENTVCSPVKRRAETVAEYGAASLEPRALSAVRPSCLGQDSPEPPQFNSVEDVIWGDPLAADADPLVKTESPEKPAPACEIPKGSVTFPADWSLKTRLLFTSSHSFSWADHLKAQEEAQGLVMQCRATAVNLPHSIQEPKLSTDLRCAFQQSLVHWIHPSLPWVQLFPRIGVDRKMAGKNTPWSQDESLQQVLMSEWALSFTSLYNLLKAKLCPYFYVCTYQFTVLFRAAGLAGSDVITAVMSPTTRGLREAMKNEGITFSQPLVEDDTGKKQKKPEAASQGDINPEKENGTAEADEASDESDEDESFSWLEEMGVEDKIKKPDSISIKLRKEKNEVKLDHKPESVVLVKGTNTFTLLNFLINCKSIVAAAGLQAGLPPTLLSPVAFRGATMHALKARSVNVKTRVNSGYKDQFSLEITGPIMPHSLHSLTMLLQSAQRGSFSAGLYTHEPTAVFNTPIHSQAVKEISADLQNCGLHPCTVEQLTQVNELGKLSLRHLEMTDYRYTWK
Put plainly: co-IP; chromatin replicating in Xenopus egg extract isolated in S-phase (unchallenged, or with aphidicolin and caffeine), complexes released with benzonase and sonication; antibodies (α-Cdc45, α-GINS, α-DONSON, α-TopBP1, α-Treslin) on Dynabeads, 4°C 1-2 h, washes in ANIB100; immunoblot. For orientation: Immunoblotting shows a protein as a band on a membrane.

Assay [2] concerns the target T1, Xenopus laevis DONSON (Xenopus laevis (endogenous in egg extract)). As to the kind of experiment: co-IP; nuclei with nucleoplasm isolated without detergent from egg extract in mid S-phase (45 min), optionally with p27Kip1 or Cdc7i PHA-767491; benzonase; α-DONSON (rabbit) on Dynabeads Protein A, 4°C 1-2 h; immunoblot.
The target of assay [3] is TopBP1 (Xenopus laevis (endogenous in egg extract)). Put plainly: co-IP; chromatin replicating in Xenopus egg extract isolated in S-phase (unchallenged, or with aphidicolin and caffeine), complexes released with benzonase and sonication; antibodies (α-Cdc45, α-GINS, α-DONSON, α-TopBP1, α-Treslin) on Dynabeads, 4°C 1-2 h, washes in ANIB100; immunoblot.

Results are given in words; binding and its absence hold for the method and conditions named. Binding seen in cells or lysates may run through a third protein. Binding calls can cover weak binding; strength is not graded here.

For RecQ4, the binding entry in assay [1] is on record as “binds”.
Turning to TopBP1, the binding entry in assay [2] and in assay [1] was “binds” throughout.

B1: Xenopus laevis DONSON (protein, UniProt Q5U4U4 1-579)
chain: MAELLPGYSPSFKKPSEILRLSRRRSRSEASKTGLSPFSPGDVIKRVPGLRPFSPGPNKGAGVKRRNPFASLENTVCSPVKRRAETVAEYGAASLEPRALSAVRPSCLGQDSPEPPQFNSVEDVIWGDPLAADADPLVKTESPEKPAPACEIPKGSVTFPADWSLKTRLLFTSSHSFSWADHLKAQEEAQGLVMQCRATAVNLPHSIQEPKLSTDLRCAFQQSLVHWIHPSLPWVQLFPRIGVDRKMAGKNTPWSQDESLQQVLMSEWALSFTSLYNLLKAKLCPYFYVCTYQFTVLFRAAGLAGSDVITAVMSPTTRGLREAMKNEGITFSQPLVEDDTGKKQKKPEAASQGDINPEKENGTAEADEASDESDEDESFSWLEEMGVEDKIKKPDSISIKLRKEKNEVKLDHKPESVVLVKGTNTFTLLNFLINCKSIVAAAGLQAGLPPTLLSPVAFRGATMHALKARSVNVKTRVNSGYKDQFSLEITGPIMPHSLHSLTMLLQSAQRGSFSAGLYTHEPTAVFNTPIHSQAVKEISADLQNCGLHPCTVEQLTQVNELGKLSLRHLEMTDYRYTWK
On to B1, for which the binding entry in assay [3] was “binds”.
